# From publication PMC7819943, “Rice protein-binding microarrays: a tool to detect cis-acting elements near promoter regions in rice”
# Sequences of proteins named here, by UniProt entry; tags and fusion partners are left off.
# UniProt Q0JBA9, entry or part of it: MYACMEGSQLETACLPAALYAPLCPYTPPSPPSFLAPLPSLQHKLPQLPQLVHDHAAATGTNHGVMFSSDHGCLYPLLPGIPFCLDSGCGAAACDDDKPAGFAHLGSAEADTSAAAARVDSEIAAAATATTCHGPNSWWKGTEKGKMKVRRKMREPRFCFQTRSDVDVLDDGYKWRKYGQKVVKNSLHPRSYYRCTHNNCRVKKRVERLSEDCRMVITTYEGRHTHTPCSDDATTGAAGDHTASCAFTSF
# The list shows a part of the results.
# Target: OsWRKY34 (Oryza sativa, UniProt Q0JBA9 1-250)
# Assay: protein-binding microarray (RPBM); PBS, 2% BSA, 51.3 ng/ul salmon testes DNA, 50 uM zinc acetate, 200 nM TF, 25 C, 1 h; high values mean tight binding
# Settings: protein: recombinant; tags: N-terminal polyhistidine and DsRed monomer fusion (pET32a); label: CyDye5-dUTP incorporated in the synthesized complementary strand; 3' TTTTT single-stranded linker to array surface; dsDNA, one strand shown
# Method in brief: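 In PBS with 2% BSA, salmon testes DNA and 50 µM zinc acetate, 200 nM protein was incubated on a custom Agilent array at 25 °C for 1 h and then washed off. The array had been made double-stranded by primer extension with Cy5-dUTP and blocked with 2% BSA. The proteins were transcription factors fused N-terminally to polyhistidine and DsRed, expressed in E. coli BL21-CodonPlus and purified on Ni–NTA. The binding signal is per-feature fluorescence intensity (arbitrary units) from an Axon 4000B scanner.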
row,Sequence,binding signal
1,TCTATAGCTCTCTAATCCATTGCCTCGTTTTTCTCTATAGCGGAGTCACCTAGTGCAG,8180 fluorescence intensity (a.u.)
2,TCTTCTTCGTCGTTGCCCGTTGACCCAAGAAGCTGTCTAACGGAGTCACCTAGTGCAG,11700 fluorescence intensity (a.u.)
3,TTCTCCGGCGACACTGCCACTGCCACGCGTCCCTCCCTTCCGGAGTCACCTAGTGCAG,8120 fluorescence intensity (a.u.)
4,AATCACAACATGTCTATATAAACCTTGCTCTACACCACAGCGGAGTCACCTAGTGCAG,10100 fluorescence intensity (a.u.)
5,TGCTCGGACCATTCCCCGCCCACCATCGCTGCACACTTTTCGGAGTCACCTAGTGCAG,17200 fluorescence intensity (a.u.)
6,GGACACTCCACACACTCGACCTATCAACTTCAAGTCTTCACGGAGTCACCTAGTGCAG,8520 fluorescence intensity (a.u.)
7,CGCTTCGTCGATGTCGCGTGGGCCCAGCCTCTCACATTTGCGGAGTCACCTAGTGCAG,8280 fluorescence intensity (a.u.)
8,CCTCGCGATCTCCACCATCTCCTTTACTCGTGGGCCCGCACGGAGTCACCTAGTGCAG,8800 fluorescence intensity (a.u.)
9,CGGTTTTTATGGGATAGAGGAAGTAGGTGCTTAGGCCCTCCGGAGTCACCTAGTGCAG,8530 fluorescence intensity (a.u.)
10,AATCTATAAAGTTTATCCTCACTATACTAATGTTATTTTTCGGAGTCACCTAGTGCAG,9100 fluorescence intensity (a.u.)
11,CAAATTGTTTTTTTAGTGGCTTTGTTCGTACTTATCCAAACGGAGTCACCTAGTGCAG,10800 fluorescence intensity (a.u.)
12,ATTTTAGTCATTCTCACTCTCCACTAATTCCACCTTAGATCGGAGTCACCTAGTGCAG,9620 fluorescence intensity (a.u.)
13,ATGAGAGAGGTAAAATAAACTTATTGCAAAATAGAAGGATCGGAGTCACCTAGTGCAG,8180 fluorescence intensity (a.u.)
14,GCGGTGCAGGGCGGTGGCGGCGGCGGGTGGGGCGGTGGCGCGGAGTCACCTAGTGCAG,20900 fluorescence intensity (a.u.)
15,GGAGCACCTGTCGTGCGCTGCCGCCATGTACGCGGCGCCGCGGAGTCACCTAGTGCAG,8360 fluorescence intensity (a.u.)
16,GACTTTTTAGCACATTTTTGACCGTTCATCTTATTCAAAACGGAGTCACCTAGTGCAG,8780 fluorescence intensity (a.u.)
17,AAACAGAACACAACCACACGCCACGAAACGAACAACAAAACGGAGTCACCTAGTGCAG,8400 fluorescence intensity (a.u.)
18,ATTTGGTCTCTAACTTCTCAGCTGGCTTTATACTTTGGGACGGAGTCACCTAGTGCAG,8810 fluorescence intensity (a.u.)
19,ACACCGTACTCACACCTCCACGAAGACGTTCCCAAACACACGGAGTCACCTAGTGCAG,8430 fluorescence intensity (a.u.)
20,GGTTTGCTGATGCTCATCTCTGACATTATTCTTTCTGAACCGGAGTCACCTAGTGCAG,8660 fluorescence intensity (a.u.)
21,CAATGATCCCCGCACTCTTGCTCCTCGCTTCCTTGTCCATCGGAGTCACCTAGTGCAG,8450 fluorescence intensity (a.u.)
22,GGTGAGGTCGGAGGGAGGGAGGGAGGAAGCAGGGATCGGCCGGAGTCACCTAGTGCAG,8900 fluorescence intensity (a.u.)
23,TCTGTTGCTTTTCCAGTTTAGTACCATTGATCATATCTATCGGAGTCACCTAGTGCAG,13200 fluorescence intensity (a.u.)
24,CTTTCTCTTCCTTTCCCCTGTCCTTGCGCCGCCGCCGCCTCGGAGTCACCTAGTGCAG,8640 fluorescence intensity (a.u.)
25,TTTTCCCTCATGTCACGTCGCATTAGTCTGATTTTGAATTCGGAGTCACCTAGTGCAG,8980 fluorescence intensity (a.u.)
26,GCCCACCAACACCGCCTCCGTATCCCGTATCCGTCTCCGACGGAGTCACCTAGTGCAG,8800 fluorescence intensity (a.u.)
27,CACTCTGTGTGTGTTCCCTCCTTGTGCTGAGCCGCGGCCGCGGAGTCACCTAGTGCAG,8410 fluorescence intensity (a.u.)

row,Sequence,binding signal
1,CACCTGACTCATCGATCCACTACTGCCGCCGCCGCCCATGCGGAGTCACCTAGTGCAG,8180 fluorescence intensity (a.u.)
2,GGTATAGTTTTATACTGTTTATATCCAACGTTTGACCGTTCGGAGTCACCTAGTGCAG,10200 fluorescence intensity (a.u.)
3,ATCATCCGTGTTTGAGTCGGTTTTTAAGTTCGTTCGCTTTCGGAGTCACCTAGTGCAG,8810 fluorescence intensity (a.u.)
4,ACAATTTCTTTCATGTCCCTAAACTCTCGACCCTGCCGATCGGAGTCACCTAGTGCAG,8910 fluorescence intensity (a.u.)
5,TCTGAACCCCAGCATCTTGGCTCTGAACTCCTCGTTCGTCCGGAGTCACCTAGTGCAG,8490 fluorescence intensity (a.u.)
6,CGGCCCCTACTACCACGGCGCCGCCGCGCTCCGCGCCATGCGGAGTCACCTAGTGCAG,8140 fluorescence intensity (a.u.)
7,CCATCACGTTCACGGTCGCATCAGATCACATCACCACATACGGAGTCACCTAGTGCAG,8200 fluorescence intensity (a.u.)
8,GCCACCCACGCCGCGCGCTCTCTCGTCGCATCGGCAGCAGCGGAGTCACCTAGTGCAG,8540 fluorescence intensity (a.u.)
9,TTGGTCGACATGGGTGGGAGGCGGATCGATGACGTAGAATCGGAGTCACCTAGTGCAG,12100 fluorescence intensity (a.u.)
10,TGCCTCTGTTACCACACTCTCACCTTGCTTAATAAATGCTCGGAGTCACCTAGTGCAG,9800 fluorescence intensity (a.u.)
11,GCAGCAAGTTGCCTCTCGCCGACCTCTTGTTTCTTTCGTCCGGAGTCACCTAGTGCAG,11100 fluorescence intensity (a.u.)
12,GGTGTGTGGTTTTTTTTTCTTAAACTCCAAATCTCTTTTTCGGAGTCACCTAGTGCAG,8340 fluorescence intensity (a.u.)
13,TGACAGATTATTTGTGGCTTATTCTTGGTTTTTTTTTATGCGGAGTCACCTAGTGCAG,8850 fluorescence intensity (a.u.)
14,TGACATTCTGTTTTGCTTTTCCTGCTGATATCAACATGTTCGGAGTCACCTAGTGCAG,9090 fluorescence intensity (a.u.)
15,CACCTCATCATTTAGTACTACTATGTATTTCCTCCGTCCCCGGAGTCACCTAGTGCAG,8580 fluorescence intensity (a.u.)
16,TATCTCTCTTTCTCTTTCTTCGTGTCGTCGACTTCGCATGCGGAGTCACCTAGTGCAG,8320 fluorescence intensity (a.u.)
17,TCTCACCAGCTATCTTCTCACCGGCTGCTTCTCAGAATATCGGAGTCACCTAGTGCAG,10500 fluorescence intensity (a.u.)
18,CCTCTCCTCTCTCGCCGCCCACCTCGCCGTCGCCGCCGCCCGGAGTCACCTAGTGCAG,10200 fluorescence intensity (a.u.)
19,GTTTATATTCATGATTTTTGATTTTTACTCTTTGCTTCACCGGAGTCACCTAGTGCAG,10900 fluorescence intensity (a.u.)
20,TTGTATGTACGGCCACTTATTAATTACCTCAAGATTCATCCGGAGTCACCTAGTGCAG,8440 fluorescence intensity (a.u.)
21,GCCTCCGTCGCCGTCGCCGCTCGCACTGCTACCCGTCGTCCGGAGTCACCTAGTGCAG,8490 fluorescence intensity (a.u.)
22,CTTTCTAACTGAACTCTCCTGCTACATCAATACATATAAGCGGAGTCACCTAGTGCAG,8530 fluorescence intensity (a.u.)
23,GTAGAGATGGGCTGGGCTGGGGTGAGGAAAGAAAGAGGAGCGGAGTCACCTAGTGCAG,9680 fluorescence intensity (a.u.)
24,CTCATCCGGCCTGACCAGCCTCTACACACAGCCACGTTGACGGAGTCACCTAGTGCAG,10500 fluorescence intensity (a.u.)
25,ACGTATTCACGGCTTCATGCCATGCCACAGTGATATCTATCGGAGTCACCTAGTGCAG,8060 fluorescence intensity (a.u.)
26,TCCAACTTCCAACCCCAATGCCCACGAGCACTCGCCACGTCGGAGTCACCTAGTGCAG,8320 fluorescence intensity (a.u.)
27,AATTAAATCAATCTTTGTTCCGGCTGTGTCTTGTTCCCAACGGAGTCACCTAGTGCAG,8390 fluorescence intensity (a.u.)

# In another format: entries from further up
row	Sequence	binding signal
24	CTCATCCGGCCTGACCAGCCTCTACACACAGCCACGTTGACGGAGTCACCTAGTGCAG	10500 fluorescence intensity (a.u.)
25	ACGTATTCACGGCTTCATGCCATGCCACAGTGATATCTATCGGAGTCACCTAGTGCAG	8060 fluorescence intensity (a.u.)
26	TCCAACTTCCAACCCCAATGCCCACGAGCACTCGCCACGTCGGAGTCACCTAGTGCAG	8320 fluorescence intensity (a.u.)
27	AATTAAATCAATCTTTGTTCCGGCTGTGTCTTGTTCCCAACGGAGTCACCTAGTGCAG	8390 fluorescence intensity (a.u.)
